These results are taken from PubChem BioAssay AID1508600 (Functional Genomics Laboratory (NCATS/FGL), 2020).

Among all 53,000 sequences or so, about 3,700 (7%) were called active.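 Rule for the calls: active = gene knockdowns whose robust z-score for IL-1 alpha signal is at least 2 or at most -2, so actives lie on both sides; inactive = the rest.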 This is one part of the list.

This experiment in a line: Components of the Cytosolic LPS Sensing Pathway: Gene Identification via Genome-wide siRNA Screen.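 Note: robust z of the log signal after scaling to non-targeting control siRNA wells of the plate.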 To be noted: RAW264.7 macrophages, IL-1a HTRF, actives lie on both sides, screened at 100 nM (by protocol), cells primed 5 h with Pam3CSK4 first. A digest of the protocol: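 Three distinct siRNAs per gene were tested singly at 100 nM in RAW264.7 macrophages. Following Pam3CSK4 priming and 24 hour LipidA transfection, IL-1a secretion was read by HTRF.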
As for GCUGCUCAAACAUAAUGAATT against Osbpl2, the z-score was inactive: -0.419.

With CCUUGGACCCGAUGUUCUUTT against Slc22a12, the z-score is inactive: 0.548.

In the case of “GGAGAAAUUCAAACAAGUATT against 4930503B20Rik”, the z-score is inactive: 0.275. For GGCUCAAGUUUGCCAGGAATT against Kcnq2, the z-score is inactive: -0.473. With GCUACAAACAAAAGUGGCCTT against Sass6, the z-score was inactive: -0.717. In the case of CCUGUCUCCAAUUUUCCUGTT against Olfr1254 it was inactive: -1.13; in that of GGUGUGUUUUGUAUUGAUUTT against Olfr843, inactive: 0.482. In the case of CCUGUGUAUUCCUAAAUUGTT against Wdr41 it was inactive: -0.718; in that of GGCCGUACCUUUAACUGGATT against Tex101, inactive: 0.261; in that of GGUUGGAACAAAAUCUUUATT against Nipa2, inactive: 0.358.

As to “GGAUGACUACAAAUGCAAATT against E230015B07Rik”, the z-score is inactive: -0.155. As for GGGCAUUGGCAAGAAAAAGTT against Ahdc1, the z-score is inactive: -0.543.

As to “GGAAGGAUUCUGGAAACAGTT against 2210409E12Rik”, the z-score was active: -2.1.

As for GGACUUAAGGCCCUUUUUGTT against Elovl3, the z-score is inactive: -1.22. GCUCACAAGGUACCUAUUATT against Frmd3: the z-score was inactive: -1.73. For GGUCAAGAAGAGUAUAGUGTT against Hras the value was inactive: -1.33; for GGAAUUUUGGUAGGUUUUATT against Tlcd4, inactive: 1.36. Take CAUUCGUUGAAGAAAGUGATT against N4bp2: the z-score was inactive: -0.92.

As for GGAAGUGAAGAGAUCCUUATT against Olfr148, the z-score is inactive: 0.86. For the sequence “GGUUUAAGCUUUUUGUGGATT against D130079A08Rik”, the z-score was inactive: 0.0133. Consider GGAAAAUCACUUCAUUCACTT against Ltk, for which the z-score is inactive: 0.893. In the case of GGUGAUGCUAAAUUCUGAUTT against Mpc2 it was inactive: -1.92; in that of GCGGUGGUUAUCCUAGAAATT against Hivep2, inactive: -1.34. As to GGUUCCUAGAUAAGAUUCGTT against Itm2b, the z-score is inactive: 0.0844. For GGAAGAAAGCAGAACAAGGTT against Armcx3 the value was inactive: -0.98; for GGACUACCAAUACGAACUGTT against Il23a, active: 2.22; for GGAAAGGACAAGAAAAUUUTT against Strn, active: -2.03.

Regarding GGAAUAAGGAGCUGAAGAATT against Olfr63, the z-score was inactive: 0.627. As to GGAACAUGAAGUGGAAAAATT against Vps33a, the z-score is inactive: -0.632.

Take GGAGAUCACCUACGACAUGTT against Lgals8: the z-score was inactive: 0.446.

For GGGCAUGCAUAGCUACUAUTT against Tmprss6, the z-score is inactive: 1.82.

On to GGCUUAUCAGUCCAUGAAGTT against Dhrs11, for which the z-score is inactive: -0.601. With “GGAACCUAACCUAAGUAGUTT against B530045E10Rik”, the z-score was inactive: -1.26. In the case of GGAGGUGAUGAUAAUCAAUTT against Trmt61a it was inactive: 0.497; in that of GGGAAUCUUCUUUCAGACCTT against Cphx1, inactive: 0.149; in that of GGAUGUGCCAUUGAAGAUCTT against Atg4c, active: 2.07.

For the sequence GCUGCUAGCAAAAAGAACUTT against Yaf2, the z-score is active: 2.24. In the case of “GGGCUGGGUCUUCAUAAUUTT against 6330549D23Rik” it was inactive: 1.14; in that of GGUGAGGAUUUAUUUGAAGTT against Fkbp5, inactive: -0.409; in that of CCAGCCAAGACUAAGAAACTT against Mbd1, inactive: -0.424. In the case of GCUGUUGGUCUGAUAGCUUTT against Hadhb it was inactive: 0.378; in that of CGAUAGACCAAAUUUUAUGTT against Trim37, inactive: 0.032; in that of AGAAUCUUUAAAGGAAGUCTT against Olfr325, inactive: 0.229.

Regarding GGGUAUUGAGUUCAAAAUUTT against Dld, the z-score is inactive: 0.346. For GGAUGACCAUGAUCACAAATT against Mtus2 the value was inactive: -0.295; for CGGGACCUUGUUGAUAACUTT against Tmem130, inactive: 0.811.

For the sequence GGAAUAUUAUCUGAUCUGUTT against Abca4, the z-score is inactive: 1.04. In the case of GGAGACAAUAUGGGACAUGTT against Ddb2 it was inactive: 0.607; in that of GCAUAAUUUCAGUGGCAAATT against Fbxw14, inactive: 1.13; in that of GGUGCAAAGCACAGAUAUATT against Mob1b, inactive: 0.776. For GGAUCAACAGUCAAUUGUGTT against Tax1bp1 the value was active: -2.16.

CCAUUGUUUGACUCAAAACTT against Gjc3: the z-score is inactive: 0.62.

Consider GGAAAGAAGAAACAUUCCUTT against Socs5, for which the z-score was inactive: 0.495. In the case of GGGUUUUUGAUGAUGAUUCTT against Htatsf1 it was inactive: -0.66. For CGGGAUCUUCACUCUCUGATT against Timd4 the value was inactive: 0.11; for GGAGAUGGAUGAUAUGGAGTT against Ifi30, inactive: 0.00856; for GCCUUUUGACGCAAAAACATT against Myh8, inactive: -0.833. As for CGUUGUUUAUUCCAAAGAGTT against Runx1, the z-score is inactive: 0.44. As to GGAGAAAGCCUUCCAAUUUTT against Kel, the z-score is inactive: -0.273. In the case of GGUUAAAGUCUGUGGAUUUTT against Aff4 it was inactive: 1.56. In the case of GGGAAAGGAUAAAGAUUUUTT against Hmgcs1 it was inactive: -0.396; in that of GGGAUGCCGAAGACAAUAGTT against Vmn1r197, inactive: -0.345; in that of GGAUAAAAGCAUUUGAGUCTT against Acp1, inactive: 0.694. In the case of GGAUCUGGAGAAGAUGUUCTT against Efhd1 it was inactive: -0.512; in that of GGCGUGUUGGAACAAGGAUTT against Cops8, inactive: 0.379. With CGACUGCCCAUAAGAAAACTT against Csl, the z-score was inactive: -0.975. Take GGAGUUGUCGCACUACAUGTT against Bicd2: the z-score was inactive: 0.449. Regarding GGUCAUAGCCCUCUACAUATT against Rgr, the z-score was inactive: -0.914. For GGCACACUUUCUACCUAAUTT against Tmem26 the value was inactive: 0.606; for GGAGGAGCUCCAUUUAUGCTT against Zfp65, inactive: 0.859; for GGCCAACCUUGGUCUUAUGTT against Gpr146, inactive: -0.787. In the case of CCGUGUACUUUGGAUCUGGTT against Cox7c it was inactive: 0.622; in that of CGAUGAGAUGCGUAUUGAGTT against Card11, inactive: 0.601; in that of CGGAUCUUAUCAGAACAUGTT against Zfp638, inactive: 0.201.

As to GCAACUCAAUCCAUGCAAATT against Senp8, the z-score is inactive: 0.622. In the case of GGUUAUGCUGGAGAUAAAUTT against Lama1 it was inactive: -1.5; in that of GGCUGUGAUCUCCUGGCUUTT against Rnft2, inactive: -1.46; in that of GCAUACUACAUGAUGUGGUTT against Spag7, inactive: 0.77.

Turning to GGAUACCAUAGCAGAUCCATT against Fahd2a, the z-score was inactive: 0.289. Consider GGCUGUGAUUAGAGGAUGATT against Dnajc5, for which the z-score was inactive: 0.333. CCUCAACUUUUCAAAAGACTT against Dlx5: the z-score was inactive: -0.466.

As to GGAGCAGAUAAUGUACAUATT against Cep112, the z-score was active: 2.32. With CCUCGGAUAACGAAGCUAATT against Hoxc10, the z-score is inactive: -1.31.

With GGCAGCUGGAAAGACAAAATT against Snca, the z-score is inactive: 1.19. Regarding GGAGAAGUAAAACUCGAAGTT against Rwdd2a, the z-score was inactive: 0.276. For CCAACGCGAACGAGAACUATT against C1qb the value was inactive: -0.0813; for GGCUUUAACCGCAUCAUAGTT against G6pd2, inactive: -0.785. For GCGGGCUUAUAGGAAGAAGTT against Prss28 the value was inactive: 0.709.

Consider GGGUUUUCUUACAAAGAACTT against Hoxb2, for which the z-score was inactive: -0.681. Regarding GGAGUUGUGACUACGGAGATT against Zfp952, the z-score was inactive: 0.619.

GGAAGGAGAAAAUGGAACUTT against Il12rb2: the z-score was inactive: -0.574. Turning to AUUCUGCAAGUGCCGUAUGTT against Fcrlb, the z-score was inactive: 0.115.

On to GGCUAAAGAAUGUUAUCAGTT against Ttc12, for which the z-score is inactive: 0.302. On to CGUAAUCUUCAUCUUAGUATT against Olfr613, for which the z-score is inactive: 0.601. For GGAAGUCAGUGAAAAAAUUTT against Csn1s2a the value was inactive: -0.437. For GGAUGCCAAUUACUUUCUATT against Chst9 the value was inactive: 0.475; for GCUUGUUAAAAACGAAUUCTT against Ccer1, inactive: 0.688; for GGUAUUUAGCCUUGCAUACTT against Sfswap, inactive: 0.5. In the case of GCCCUCUGAUAUGUUGAACTT against Lrr1 it was inactive: 0.559; in that of GCAUCACAAAUAUGCUUCUTT against Tas2r120, inactive: -0.368.

Regarding GGGUUUCUUCGUGUCUAUUTT against Pth2r, the z-score is inactive: 1.56. For GCCAACCUAGCAACUCAAGTT against Ankrd42 the value was inactive: -1.1. For GCUGUGCCCUAAAGACUGGTT against Clec2m, the z-score is active: 2.27. With GGAAUCAAACUGGAUUGAUTT against Pi4k2b, the z-score is active: 2.01. For the sequence GGCUAUCUAAUCUUCCCGGTT against Ints9, the z-score is inactive: -0.388. In the case of CCGAAGAUGUUCCUCGGAATT against Rpl6 it was inactive: 0.162. As for GGCACCAUCUAUUAUUUUCTT against Psmc3, the z-score was active: -2.45.
